Source: publication PMC9810639
These are yes or no findings as the source states them, for the method shown. In cells and extracts the contact can be indirect. Binding calls can cover weak binding; strength is not graded here. Sequences can lack the tags named with a protein.

Biological target: T1, MLO1-cLUC (Arabidopsis thaliana) (UniProt O49621)
T1 sequence: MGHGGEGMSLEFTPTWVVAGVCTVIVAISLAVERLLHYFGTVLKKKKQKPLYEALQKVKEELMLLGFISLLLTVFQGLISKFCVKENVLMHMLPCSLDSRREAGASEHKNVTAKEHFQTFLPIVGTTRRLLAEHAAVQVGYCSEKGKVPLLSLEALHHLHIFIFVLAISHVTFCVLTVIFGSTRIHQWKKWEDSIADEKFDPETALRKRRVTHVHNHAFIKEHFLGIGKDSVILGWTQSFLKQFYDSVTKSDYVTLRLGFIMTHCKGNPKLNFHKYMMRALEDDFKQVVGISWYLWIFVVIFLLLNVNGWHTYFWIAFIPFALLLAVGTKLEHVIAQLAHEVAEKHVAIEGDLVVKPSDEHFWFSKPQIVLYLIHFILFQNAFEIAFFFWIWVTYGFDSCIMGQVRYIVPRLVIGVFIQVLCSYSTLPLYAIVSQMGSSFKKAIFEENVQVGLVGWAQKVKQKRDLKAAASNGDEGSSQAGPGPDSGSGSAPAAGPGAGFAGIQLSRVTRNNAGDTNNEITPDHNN
Assay: split reporter; split-luciferase complementation (LUC) imaging in N. benthamiana leaves co-infiltrated with Agrobacterium GV3101 carrying pairs of nLUC and cLUC constructs plus p19; leaves sprayed with 1 mM D-luciferin 36-48 h after infiltration, CCD imaging

## MARIS-nLUC (Arabidopsis thaliana)
  binding: binds

## MARIS^R240C-nLUC (Arabidopsis thaliana)
  binding: binds
